## Cleaved PARP in drug-treated melanoma cells

Drug key:
CHIR-265 (0.4 µM): Cn1c(Nc2ccc(C(F)(F)F)cc2)nc2cc(Oc3ccnc(-c4ncc(C(F)(F)F)[nH]4)c3)ccc21
nutlin-3 (0.5 µM): COc1ccc(C2=N[C@@H](c3ccc(Cl)cc3)[C@@H](c3ccc(Cl)cc3)N2C(=O)N2CCNC(=O)C2)c(OC(C)C)c1
CX-4945 (2 µM): O=C(O)c1ccc2c(c1)nc(Nc1cccc(Cl)c1)c1ccncc12
AZD7762 (0.1 µM): NC(=O)Nc1cc(-c2cccc(F)c2)sc1C(=O)N[C@H]1CCCNC1
PF-04217903 (5 µM): OCCn1cc(-c2cnc3nnn(Cc4ccc5ncccc5c4)c3n2)cn1
vismodegib (5 µM): CS(=O)(=O)c1ccc(C(=O)Nc2ccc(Cl)c(-c3ccccn3)c2)c(Cl)c1
nilotinib (1 µM): Cc1cn(-c2cc(NC(=O)c3ccc(C)c(Nc4nccc(-c5cccnc5)n4)c3)cc(C(F)(F)F)c2)cn1
AS-252424 (5 µM): O=C1NC(=O)/C(=C/c2ccc(-c3ccc(F)cc3O)o2)S1
vatalanib (10 µM): Clc1ccc(Nc2nnc(Cc3ccncc3)c3ccccc23)cc1
fludarabine (1 µM): Nc1nc(F)nc2c1ncn2[C@@H]1O[C@H](CO)[C@@H](O)[C@@H]1O
KU-0063794 (0.1 µM): COc1ccc(-c2ccc3c(N4CCOCC4)nc(N4C[C@@H](C)O[C@@H](C)C4)nc3n2)cc1CO
embelin (6 µM): CCCCCCCCCCCC1=C(O)C(=O)C=C(O)C1=O
PLX4720 (0.4 µM): CCCS(=O)(=O)Nc1ccc(F)c(C(=O)c2c[nH]c3ncc(Cl)cc23)c1F
OSI-906 (2 µM): C[C@]1(O)C[C@@H](c2nc(-c3ccc4ccc(-c5ccccc5)nc4c3)c3c(N)nccn32)C1
TCS401 (8.33 µM): O=C(O)C(=O)Nc1sc2c(c1C(=O)O)CCNC2
dovitinib (0.5 µM): CN1CCN(c2ccc3nc(-c4c(N)c5c(F)cccc5[nH]c4=O)[nH]c3c2)CC1
sunitinib (2 µM): CCN(CC)CCNC(=O)c1c(C)[nH]c(/C=C2\C(=O)Nc3ccc(F)cc32)c1C
L-779450 (1 µM): Oc1cc(-c2nc(-c3ccccc3)[nH]c2-c2ccncc2)ccc1Cl

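The test systems are human melanoma cell lines, treated with two drugs together for 72 h and then stained and imaged. Values are the share of nuclei positive for cleaved PARP as a percentage of the same share in the DMSO control: 100 is the control level, higher means more apoptosis. Concentrations were fixed for each drug; these are the higher of two levels. No replicate spread is given; individual values may be noisy. Basal and induced levels differ widely between cell lines.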 Only some of the drugs and lines screened are listed, without regard to their results. An entry leaves out what has no value listed here. A dash means that no value is listed here.

| Drugs | MEL-HO | SK-MEL-28 | WM3526 | 501mel |
|---|---|---|---|---|
| vatalanib + sunitinib | 75.1 | 49.6 | 591 | - |
| vatalanib + AS-252424 | 137 | 239 | 178 | 283 |
| TCS401 + vatalanib | 273 | 102 | 178 | 85.7 |
| nilotinib + CX-4945 | - | 18.7 | 290 | - |
| KU-0063794 + TCS401 | 57.8 | 59.7 | 140 | 87.8 |
| nilotinib + AZD7762 | 202 | 187 | 830 | - |
| embelin + PF-04217903 | 123 | 82.9 | 67.6 | 160 |
| L-779450 + nutlin-3 | 164 | 88.2 | 413 | 61.4 |
| AZD7762 + vismodegib | 76.2 | 347 | 1050 | - |
| AS-252424 + PLX4720 | 51.2 | 68.8 | 248 | 41.3 |
| nilotinib + CHIR-265 | 42.1 | 149 | 900 | - |
| AS-252424 + nutlin-3 | 138 | 113 | 141 | 93.1 |
| dovitinib + AZD7762 | 91.0 | 75.1 | 1420 | - |
| CX-4945 + AZD7762 | 121 | 325 | 2360 | - |
| nilotinib + OSI-906 | 97.8 | 68.4 | 193 | - |
| L-779450 + embelin | 111 | 88.2 | 176 | 116 |
| CX-4945 + fludarabine | 208 | 1780 | 7590 | - |
| embelin + dovitinib | 282 | 68.3 | 175 | 258 |
| L-779450 + vismodegib | 48.8 | 102 | 201 | 66.7 |
| AS-252424 + dovitinib | 52.8 | 79.1 | 169 | 143 |
| sunitinib + AS-252424 | 87.0 | 55.5 | 226 | 599 |
| fludarabine + PF-04217903 | 45.1 | 2690 | 7640 | - |
| CHIR-265 + OSI-906 | 53.2 | 342 | 1640 | - |
| PF-04217903 + sunitinib | 60.8 | 159 | 335 | - |
| KU-0063794 + nilotinib | 93.9 | 79.8 | 143 | 126 |
| KU-0063794 + CHIR-265 | 63.0 | 246 | 1780 | 344 |

The last 3 entries again:

{"drugs": "PF-04217903 + sunitinib", "MEL-HO": 60.8, "SK-MEL-28": 159, "WM3526": 335}
{"drugs": "KU-0063794 + nilotinib", "MEL-HO": 93.9, "SK-MEL-28": 79.8, "WM3526": 143, "501mel": 126}
{"drugs": "KU-0063794 + CHIR-265", "MEL-HO": 63.0, "SK-MEL-28": 246, "WM3526": 1780, "501mel": 344}

Values as published with doi:10.1371/journal.pone.0140310, rounded.